In this experiment the target is T1, citrate synthase (CS) from porcine heart (porcine, UniProt P00889 28-464).
T1 construct: citrate synthase, mitochondrial, from porcine heart; Used native (fresh) or partly heat-denatured (2 h at 45 °C); the assays tell the two states apart; source: bought: Sigma-Aldrich (from porcine heart)
T1 sequence (looked up): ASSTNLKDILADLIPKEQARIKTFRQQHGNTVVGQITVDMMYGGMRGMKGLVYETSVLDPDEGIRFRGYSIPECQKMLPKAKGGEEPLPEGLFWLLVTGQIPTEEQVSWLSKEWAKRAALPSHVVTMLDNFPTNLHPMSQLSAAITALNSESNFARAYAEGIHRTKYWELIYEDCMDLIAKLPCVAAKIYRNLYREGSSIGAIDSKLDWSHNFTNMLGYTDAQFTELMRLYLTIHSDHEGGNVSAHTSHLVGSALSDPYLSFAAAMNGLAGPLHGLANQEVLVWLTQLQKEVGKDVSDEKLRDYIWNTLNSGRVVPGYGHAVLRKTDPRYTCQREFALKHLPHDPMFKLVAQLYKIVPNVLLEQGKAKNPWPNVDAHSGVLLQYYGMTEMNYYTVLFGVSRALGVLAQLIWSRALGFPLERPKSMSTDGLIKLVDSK
The experiment can be described thus: SEC; fresh, non-heat-treated samples (1200 nM CS alone; freshly mixed 1:2 CS:rh Bri3 BRICHOS); Superose 6, 20 mM ammonium acetate pH 8.0, 0.7 ml/min; peak fractions by reducing SDS-PAGE; both purified.

These are yes or no findings as the source states them, for the method shown.

B1: citrate synthase (CS) from porcine heart (enzyme, UniProt P00889 28-464)
chain: T1 sequence (looked up)
In the case of B1, the binding entry is given as “no binding (tested: 1200 nM)”.

For the origin of these results see PMC7299998, “Recombinant Bri3 BRICHOS domain is a molecular chaperone with effect against amyloid formation and non-fibrillar protein aggregation” (Scientific Reports, 2020).
